Earlier results, collected in patent US8344025B2, “Oxalic acid derivatives and use thereof as physiological cooling active ingredients” (Symrise AG, priority 2007, dated 2013).
For at least one compound, name, drawing or mass did not settle the structure.

Tests used:
[1] = cited from earlier work
[2] = cited from earlier work; remark: listed apart in the source

For `CCOC(=O)CNC(=O)C1CC(C)CCC1C(C)C` [WS5, N^α-(L-menthanecarbonyl)glycine ethyl ester], the “susceptibility or resistance to hydrolysis (prior art)” value [1] is listed as “susceptible to hydrolysis” and the “irritancy (prior art)” value [2] is listed as “strongly irritant”.
